In all, about 31,000 sequences went through this assay and about 1,400 (4.5%) were called active.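 Rule for the calls: active = median seed-adjusted z-score above 1 or below -1; inactive = the rest.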 This is one part of the list.
Assay: Novel Modifiers of Survival Motor Neuron (SMN) Protein: Gene Identification via Genome-wide siRNA Screen;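 note: luminescence tracks full-length SMN protein made from the SMN2 reporter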
Conditions: HEK293T SMN2-luciferase reporter, siRNA knockdown, 72 h; actives lie on both sides
Method in brief: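 HEK293T cells stably expressing an SMN2 splicing/cDNA-luciferase reporter were reverse-transfected with a druggable-genome siRNA library and read by luminescence at 72 hours; hits defined by MAD score above 1.0 or below -1.0.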
With CAGCGGCAGUAUUACCCAATT against PHC3 the median seed-adjusted z-score was inactive: -0.204. In the case of CUGCCCAUCUUCAACCGAATT against ZDHHC1, the median seed-adjusted z-score is reported as inactive: 0. With ACGCAGAUUUCUACAGAAATT against COX6C the median seed-adjusted z-score was inactive: -0.0449. With UGCGGACACUGGAAAGAAATT against ZNHIT1 the median seed-adjusted z-score was inactive: -0.497. In the case of CGAUUAGAAAUCAACAUGATT against MLKL, the median seed-adjusted z-score is reported as inactive: 0. With UCUUCAGUCUGGUCCCGGATT against RXFP3 the median seed-adjusted z-score was inactive: -0.0651. For CGUGUUCGGCGAGACAGAATT against HOXB6, the median seed-adjusted z-score was inactive: -0.168. With CAAUUACUGUUAUCGUUGUTT against PPP2CB the median seed-adjusted z-score was inactive: 0.486. For CAAGCAUCGUGACAGAGCATT against DDX28, the median seed-adjusted z-score was inactive: -0.305. In the case of GGAGAGAAGUCUUACAAGUTT against ZNF91, the median seed-adjusted z-score is reported as inactive: 0.105. For CUCCCAAUGUUGCUCGUAATT against UCP2, the median seed-adjusted z-score was inactive: -0.111. With GUAGUGGAGUUGCCCGUGATT against TBC1D10A the median seed-adjusted z-score was inactive: -0.722. In the case of ACGAGUACUUCUACAUUCUTT against KCNE4, the median seed-adjusted z-score is reported as inactive: 0.0795. For GGCUAUCAAGGACUCACAATT against PAOX, the median seed-adjusted z-score was inactive: 0. With UAAUCUCACCUGUAACUUUTT against NANOS1 the median seed-adjusted z-score was inactive: 0.369. For GGAUUUACCGGAGGAAAAUTT against OTUB2, the median seed-adjusted z-score was inactive: 0.513. In the case of GCAACACUGUCAUUUGGGATT against CR1L, the median seed-adjusted z-score is reported as inactive: -0.038. With GCUUAUAGAUUGUAUUCGATT against HECTD1 the median seed-adjusted z-score was inactive: -0.0588. In the case of GAACAUCUUCUGGACCUUUTT against ZNF169, the median seed-adjusted z-score is reported as inactive: 0. For GUACAAUCGUUGACAAUGATT against PPEF1, the median seed-adjusted z-score was inactive: -0.58. For GAAGUUUACUUAUCUGGGUTT against PRKAB1, the median seed-adjusted z-score was inactive: 0.536. For GAACAAGGAUGGAUUUAUUTT against GUCA1C, the median seed-adjusted z-score was inactive: -0.617. With GCACCGACCUCAUGUUCAATT against NACC2 the median seed-adjusted z-score was inactive: 0.144. For GAAGAGGUAUUGAAUGCUATT against SRP54, the median seed-adjusted z-score was inactive: 0.203. With GUCCCGUGCUUGCUAGUCATT against ZNF324 the median seed-adjusted z-score was inactive: 0. With GGUGCCUAAUGAGAAGGGATT against AGER the median seed-adjusted z-score was inactive: 0.506. For GGAACAUCAUUCUACCCAATT against KIF15, the median seed-adjusted z-score was inactive: -0.873. For GAUAAAAACAGUCCUUUCUTT against FXYD3, the median seed-adjusted z-score was inactive: 0.254. With GAAAUGUGGUACUAAAGCATT against RALBP1 the median seed-adjusted z-score was inactive: -0.0514. In the case of AGGACUAGAUGGAGCAAAATT against COL13A1, the median seed-adjusted z-score is reported as inactive: -0.112. In the case of GUUUUAUCCUGAUUCAUCATT against ZNF69, the median seed-adjusted z-score is reported as inactive: 0. With GCCUUCAAAUAUUCCUCGATT against ZNF333 the median seed-adjusted z-score was inactive: 0.418. In the case of GGAUGAUUUAGAAUUGUCATT against ATP6V0C, the median seed-adjusted z-score is reported as inactive: -0.389. In the case of GCACUUCCGAGUGAAGUUUTT against PIK3CD, the median seed-adjusted z-score is reported as inactive: 0.00831. In the case of GACACUUCCUAUUCAGAAUTT against FECH, the median seed-adjusted z-score is reported as inactive: 0.135. With AGCUUUAUCUACUCCCUGATT against FSD1 the median seed-adjusted z-score was inactive: 0.685. In the case of CCAGGGAUGUUAGUCUGUATT against CACNA1C, the median seed-adjusted z-score is reported as inactive: 0. With GCCUCAAAGUAUUCAGCAATT against STARD13 the median seed-adjusted z-score was inactive: -0.0337. With GGCCCAUAUUCAUCUGCUATT against STYX the median seed-adjusted z-score was inactive: 0.694. For GCAGGUGUCUGGACGAAAATT against CHST7, the median seed-adjusted z-score was inactive: 0. In the case of CAGUUAUCAUUGGUGGUAATT against PYGL, the median seed-adjusted z-score is reported as inactive: 0.166. With ACAUCGUCCGCUUCUAUGATT against WNK4 the median seed-adjusted z-score was inactive: 0.385. In the case of GUGUGGUCAUUCAACUUGATT against ZNF324B, the median seed-adjusted z-score is reported as inactive: 0.176. In the case of ACAACGCACCAAAAUAUCATT against FBXO45, the median seed-adjusted z-score is reported as inactive: -0.043. In the case of ACCAGUACAUCAUCGCGAATT against FOXL2, the median seed-adjusted z-score is reported as inactive: -0.166. With GUGUUCGAGCUGAUACAUATT against HCN1 the median seed-adjusted z-score was inactive: -0.107. In the case of CAACGAAUCUUGAUGACAUTT against HEL308, the median seed-adjusted z-score is reported as inactive: 0.229. With AGCCUUUAAUCAUUUCUCATT against ZNF85 the median seed-adjusted z-score was active: -1.01. In the case of GCUCCCAUCAUGUACGUUUTT against GPR155, the median seed-adjusted z-score is reported as inactive: 0.0681. With GAAAGUAUAUAUUGGUGAATT against PIP4K2C the median seed-adjusted z-score was inactive: 0.27. In the case of GCAUGCAAAUAGCAUAGAATT against SLC4A8, the median seed-adjusted z-score is reported as inactive: -0.474. For CUACCACAGUUGCUUCUUUTT against HCRTR1, the median seed-adjusted z-score was inactive: 0.739. With AGUUUGAACAGAUUCGGAATT against KCNJ15 the median seed-adjusted z-score was inactive: 0.0332. With GCACAAAUGUCACCGUCAATT against RDH14 the median seed-adjusted z-score was inactive: 0.0287.
